These are yes or no findings as the source states them, for the method shown. Binding seen in cells or lysates may run through a third protein. Some results given as binding are weak or reduced against the parent protein; the word gives no strength.

Assay [1] addresses T1, methyltransferase-like 14 (METTL14) protein (human (endogenous in BCa cells)) (UniProt Q9HCE5).
T1 sequence: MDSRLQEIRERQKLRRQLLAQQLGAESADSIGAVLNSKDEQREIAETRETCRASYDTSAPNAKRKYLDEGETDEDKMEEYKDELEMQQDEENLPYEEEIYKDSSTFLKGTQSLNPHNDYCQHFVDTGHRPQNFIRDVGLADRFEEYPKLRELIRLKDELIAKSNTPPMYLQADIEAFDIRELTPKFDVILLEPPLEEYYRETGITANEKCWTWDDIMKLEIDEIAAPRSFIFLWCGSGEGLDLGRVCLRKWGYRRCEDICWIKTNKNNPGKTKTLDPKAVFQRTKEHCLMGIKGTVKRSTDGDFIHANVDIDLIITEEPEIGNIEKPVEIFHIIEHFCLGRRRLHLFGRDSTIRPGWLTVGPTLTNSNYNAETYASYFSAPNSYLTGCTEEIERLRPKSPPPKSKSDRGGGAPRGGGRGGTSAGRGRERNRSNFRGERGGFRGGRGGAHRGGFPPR
The experiment in a line: co-IP; total proteins extracted from BCa cells, incubated with anti-METTL14, anti-USP38 or anti-IgG conjugated beforehand with Protein A/G Agarose beads; precipitates assessed by western blot. On the technique in general: Immunoblotting shows a protein as a band on a membrane.

For assay [2], the target named is T2, ubiquitin specific peptidase 38 (USP38) protein (human (endogenous in BCa cells)) (UniProt Q8NB14).
T2 sequence: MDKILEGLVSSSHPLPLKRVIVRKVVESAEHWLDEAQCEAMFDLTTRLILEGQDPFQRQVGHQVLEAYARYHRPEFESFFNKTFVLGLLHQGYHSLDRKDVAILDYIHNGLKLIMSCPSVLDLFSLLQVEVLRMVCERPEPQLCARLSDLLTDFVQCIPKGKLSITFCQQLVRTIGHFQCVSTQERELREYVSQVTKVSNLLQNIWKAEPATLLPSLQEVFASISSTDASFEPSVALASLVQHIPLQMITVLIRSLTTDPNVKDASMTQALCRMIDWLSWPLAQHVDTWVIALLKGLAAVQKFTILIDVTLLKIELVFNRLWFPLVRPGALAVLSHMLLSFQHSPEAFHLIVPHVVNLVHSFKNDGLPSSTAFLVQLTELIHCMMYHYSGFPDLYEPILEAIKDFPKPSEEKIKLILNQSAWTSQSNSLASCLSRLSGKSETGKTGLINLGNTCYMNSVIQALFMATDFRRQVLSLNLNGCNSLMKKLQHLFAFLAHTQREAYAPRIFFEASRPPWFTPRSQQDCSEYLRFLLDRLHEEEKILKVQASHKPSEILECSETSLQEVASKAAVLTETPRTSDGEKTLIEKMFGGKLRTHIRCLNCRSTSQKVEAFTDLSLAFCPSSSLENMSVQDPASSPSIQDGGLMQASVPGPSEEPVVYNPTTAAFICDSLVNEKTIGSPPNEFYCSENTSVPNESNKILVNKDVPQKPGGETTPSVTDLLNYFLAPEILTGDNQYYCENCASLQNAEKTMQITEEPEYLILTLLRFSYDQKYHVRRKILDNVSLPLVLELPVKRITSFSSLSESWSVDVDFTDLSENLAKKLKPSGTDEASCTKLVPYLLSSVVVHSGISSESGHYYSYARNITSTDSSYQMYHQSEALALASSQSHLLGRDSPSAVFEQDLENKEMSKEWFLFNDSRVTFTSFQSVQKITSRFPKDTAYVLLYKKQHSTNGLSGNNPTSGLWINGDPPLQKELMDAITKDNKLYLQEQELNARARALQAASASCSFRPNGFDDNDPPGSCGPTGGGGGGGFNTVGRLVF
Described as above.

B1: ubiquitin specific peptidase 38 (USP38) protein (enzyme, UniProt Q8NB14 1-1042)
chain: MDKILEGLVSSSHPLPLKRVIVRKVVESAEHWLDEAQCEAMFDLTTRLILEGQDPFQRQVGHQVLEAYARYHRPEFESFFNKTFVLGLLHQGYHSLDRKDVAILDYIHNGLKLIMSCPSVLDLFSLLQVEVLRMVCERPEPQLCARLSDLLTDFVQCIPKGKLSITFCQQLVRTIGHFQCVSTQERELREYVSQVTKVSNLLQNIWKAEPATLLPSLQEVFASISSTDASFEPSVALASLVQHIPLQMITVLIRSLTTDPNVKDASMTQALCRMIDWLSWPLAQHVDTWVIALLKGLAAVQKFTILIDVTLLKIELVFNRLWFPLVRPGALAVLSHMLLSFQHSPEAFHLIVPHVVNLVHSFKNDGLPSSTAFLVQLTELIHCMMYHYSGFPDLYEPILEAIKDFPKPSEEKIKLILNQSAWTSQSNSLASCLSRLSGKSETGKTGLINLGNTCYMNSVIQALFMATDFRRQVLSLNLNGCNSLMKKLQHLFAFLAHTQREAYAPRIFFEASRPPWFTPRSQQDCSEYLRFLLDRLHEEEKILKVQASHKPSEILECSETSLQEVASKAAVLTETPRTSDGEKTLIEKMFGGKLRTHIRCLNCRSTSQKVEAFTDLSLAFCPSSSLENMSVQDPASSPSIQDGGLMQASVPGPSEEPVVYNPTTAAFICDSLVNEKTIGSPPNEFYCSENTSVPNESNKILVNKDVPQKPGGETTPSVTDLLNYFLAPEILTGDNQYYCENCASLQNAEKTMQITEEPEYLILTLLRFSYDQKYHVRRKILDNVSLPLVLELPVKRITSFSSLSESWSVDVDFTDLSENLAKKLKPSGTDEASCTKLVPYLLSSVVVHSGISSESGHYYSYARNITSTDSSYQMYHQSEALALASSQSHLLGRDSPSAVFEQDLENKEMSKEWFLFNDSRVTFTSFQSVQKITSRFPKDTAYVLLYKKQHSTNGLSGNNPTSGLWINGDPPLQKELMDAITKDNKLYLQEQELNARARALQAASASCSFRPNGFDDNDPPGSCGPTGGGGGGGFNTVGRLVF
Take B1: the binding result in assay [1] is listed as “binds”.

B2: methyltransferase-like 14 (METTL14) protein (protein, UniProt Q9HCE5 1-456)
chain: MDSRLQEIRERQKLRRQLLAQQLGAESADSIGAVLNSKDEQREIAETRETCRASYDTSAPNAKRKYLDEGETDEDKMEEYKDELEMQQDEENLPYEEEIYKDSSTFLKGTQSLNPHNDYCQHFVDTGHRPQNFIRDVGLADRFEEYPKLRELIRLKDELIAKSNTPPMYLQADIEAFDIRELTPKFDVILLEPPLEEYYRETGITANEKCWTWDDIMKLEIDEIAAPRSFIFLWCGSGEGLDLGRVCLRKWGYRRCEDICWIKTNKNNPGKTKTLDPKAVFQRTKEHCLMGIKGTVKRSTDGDFIHANVDIDLIITEEPEIGNIEKPVEIFHIIEHFCLGRRRLHLFGRDSTIRPGWLTVGPTLTNSNYNAETYASYFSAPNSYLTGCTEEIERLRPKSPPPKSKSDRGGGAPRGGGRGGTSAGRGRERNRSNFRGERGGFRGGRGGAHRGGFPPR
Turning to B2, the binding entry in assay [2] is “binds”.

The values are drawn from publication PMC9605029.
